Twelve molecules from article PMC9365812 can be followed below.

Chains of the proteins cited; added tags and fusions are not shown. Lines headed by an entry give the natural chain unless they say otherwise; changes in a name come on top.
UniProt O95782: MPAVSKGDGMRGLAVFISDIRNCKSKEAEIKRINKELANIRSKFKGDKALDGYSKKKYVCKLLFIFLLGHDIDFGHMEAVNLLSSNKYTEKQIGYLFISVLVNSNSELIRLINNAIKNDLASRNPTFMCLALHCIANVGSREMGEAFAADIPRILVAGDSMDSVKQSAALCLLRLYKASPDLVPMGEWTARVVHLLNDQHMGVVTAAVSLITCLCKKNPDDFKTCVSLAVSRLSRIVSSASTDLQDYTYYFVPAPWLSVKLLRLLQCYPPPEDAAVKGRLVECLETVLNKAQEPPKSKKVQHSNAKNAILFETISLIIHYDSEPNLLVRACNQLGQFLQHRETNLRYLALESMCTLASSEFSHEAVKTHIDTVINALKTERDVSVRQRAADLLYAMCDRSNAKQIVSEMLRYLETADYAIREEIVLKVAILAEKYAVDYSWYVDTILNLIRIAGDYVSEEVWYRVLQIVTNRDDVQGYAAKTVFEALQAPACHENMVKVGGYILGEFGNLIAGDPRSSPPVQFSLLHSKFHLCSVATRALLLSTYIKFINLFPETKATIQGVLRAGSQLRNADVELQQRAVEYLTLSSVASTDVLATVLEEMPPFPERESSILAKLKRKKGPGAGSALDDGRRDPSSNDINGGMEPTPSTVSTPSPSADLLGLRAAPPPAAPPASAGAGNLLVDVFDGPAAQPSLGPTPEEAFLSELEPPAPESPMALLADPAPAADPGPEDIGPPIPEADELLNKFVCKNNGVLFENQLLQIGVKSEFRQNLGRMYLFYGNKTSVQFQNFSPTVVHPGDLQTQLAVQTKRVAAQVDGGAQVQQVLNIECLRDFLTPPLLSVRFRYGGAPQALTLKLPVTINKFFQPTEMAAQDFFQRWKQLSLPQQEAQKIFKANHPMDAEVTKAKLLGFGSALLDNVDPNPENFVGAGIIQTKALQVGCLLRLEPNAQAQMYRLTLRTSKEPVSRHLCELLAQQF
UniProt O94973: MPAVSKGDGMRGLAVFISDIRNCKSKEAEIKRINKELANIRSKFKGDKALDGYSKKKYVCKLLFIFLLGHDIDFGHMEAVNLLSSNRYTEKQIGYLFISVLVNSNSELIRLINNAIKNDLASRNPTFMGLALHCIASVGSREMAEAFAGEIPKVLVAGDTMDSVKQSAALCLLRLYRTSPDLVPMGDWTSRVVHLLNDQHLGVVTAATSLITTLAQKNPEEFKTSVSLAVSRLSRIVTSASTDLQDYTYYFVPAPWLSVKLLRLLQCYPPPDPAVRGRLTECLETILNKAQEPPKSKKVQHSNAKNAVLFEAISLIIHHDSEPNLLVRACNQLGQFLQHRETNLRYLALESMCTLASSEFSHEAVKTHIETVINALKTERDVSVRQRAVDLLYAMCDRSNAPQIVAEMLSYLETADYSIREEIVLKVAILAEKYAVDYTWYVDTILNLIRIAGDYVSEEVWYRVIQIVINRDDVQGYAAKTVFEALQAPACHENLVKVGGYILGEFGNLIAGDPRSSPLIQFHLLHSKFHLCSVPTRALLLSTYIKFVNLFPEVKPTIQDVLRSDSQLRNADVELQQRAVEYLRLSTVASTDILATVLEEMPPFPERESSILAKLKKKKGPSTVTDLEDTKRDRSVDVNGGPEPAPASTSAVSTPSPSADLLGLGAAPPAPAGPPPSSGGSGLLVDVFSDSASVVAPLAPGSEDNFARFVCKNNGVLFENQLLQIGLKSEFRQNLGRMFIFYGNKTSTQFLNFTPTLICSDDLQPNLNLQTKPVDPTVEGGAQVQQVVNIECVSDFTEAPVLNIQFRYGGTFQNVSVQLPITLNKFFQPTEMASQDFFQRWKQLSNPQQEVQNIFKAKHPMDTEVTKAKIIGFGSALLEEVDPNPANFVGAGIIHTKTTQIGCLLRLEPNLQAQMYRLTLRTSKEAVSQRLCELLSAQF
UniProt Q16740: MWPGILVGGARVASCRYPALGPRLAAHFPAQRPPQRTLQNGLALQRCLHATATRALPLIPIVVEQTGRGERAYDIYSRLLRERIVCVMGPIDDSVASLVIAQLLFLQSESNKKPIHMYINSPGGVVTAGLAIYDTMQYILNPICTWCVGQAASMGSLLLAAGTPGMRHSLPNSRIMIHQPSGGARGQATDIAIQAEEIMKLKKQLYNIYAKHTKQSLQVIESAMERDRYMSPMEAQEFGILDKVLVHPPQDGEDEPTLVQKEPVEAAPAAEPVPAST
UniProt Q8IUD2: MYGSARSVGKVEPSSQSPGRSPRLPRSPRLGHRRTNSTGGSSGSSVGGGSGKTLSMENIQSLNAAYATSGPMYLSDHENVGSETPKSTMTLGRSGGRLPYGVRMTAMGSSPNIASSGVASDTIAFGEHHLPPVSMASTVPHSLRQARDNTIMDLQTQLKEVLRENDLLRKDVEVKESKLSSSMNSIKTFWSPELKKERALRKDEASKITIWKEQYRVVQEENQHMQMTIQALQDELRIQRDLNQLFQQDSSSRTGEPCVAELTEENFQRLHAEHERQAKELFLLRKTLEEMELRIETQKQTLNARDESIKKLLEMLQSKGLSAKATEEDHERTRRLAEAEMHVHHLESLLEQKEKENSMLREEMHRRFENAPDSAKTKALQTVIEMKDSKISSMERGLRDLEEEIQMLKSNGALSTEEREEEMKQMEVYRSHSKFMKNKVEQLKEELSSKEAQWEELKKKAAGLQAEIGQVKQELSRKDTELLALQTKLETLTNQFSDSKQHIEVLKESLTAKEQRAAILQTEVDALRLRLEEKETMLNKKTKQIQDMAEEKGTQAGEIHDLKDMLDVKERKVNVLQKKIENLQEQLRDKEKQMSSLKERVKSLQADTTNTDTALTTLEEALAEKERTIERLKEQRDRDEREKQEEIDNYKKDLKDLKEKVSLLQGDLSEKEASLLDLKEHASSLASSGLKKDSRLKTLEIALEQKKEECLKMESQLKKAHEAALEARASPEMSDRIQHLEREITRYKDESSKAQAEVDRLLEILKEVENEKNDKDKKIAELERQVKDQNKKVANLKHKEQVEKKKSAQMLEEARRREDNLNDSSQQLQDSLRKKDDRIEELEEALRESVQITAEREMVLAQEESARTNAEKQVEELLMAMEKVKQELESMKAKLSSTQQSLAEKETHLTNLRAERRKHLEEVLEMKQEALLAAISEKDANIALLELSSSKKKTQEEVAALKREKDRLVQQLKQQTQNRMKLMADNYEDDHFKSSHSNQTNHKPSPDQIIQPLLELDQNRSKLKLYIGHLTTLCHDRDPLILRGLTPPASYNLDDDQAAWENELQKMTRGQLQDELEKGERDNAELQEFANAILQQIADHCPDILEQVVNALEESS
UniProt Q14789: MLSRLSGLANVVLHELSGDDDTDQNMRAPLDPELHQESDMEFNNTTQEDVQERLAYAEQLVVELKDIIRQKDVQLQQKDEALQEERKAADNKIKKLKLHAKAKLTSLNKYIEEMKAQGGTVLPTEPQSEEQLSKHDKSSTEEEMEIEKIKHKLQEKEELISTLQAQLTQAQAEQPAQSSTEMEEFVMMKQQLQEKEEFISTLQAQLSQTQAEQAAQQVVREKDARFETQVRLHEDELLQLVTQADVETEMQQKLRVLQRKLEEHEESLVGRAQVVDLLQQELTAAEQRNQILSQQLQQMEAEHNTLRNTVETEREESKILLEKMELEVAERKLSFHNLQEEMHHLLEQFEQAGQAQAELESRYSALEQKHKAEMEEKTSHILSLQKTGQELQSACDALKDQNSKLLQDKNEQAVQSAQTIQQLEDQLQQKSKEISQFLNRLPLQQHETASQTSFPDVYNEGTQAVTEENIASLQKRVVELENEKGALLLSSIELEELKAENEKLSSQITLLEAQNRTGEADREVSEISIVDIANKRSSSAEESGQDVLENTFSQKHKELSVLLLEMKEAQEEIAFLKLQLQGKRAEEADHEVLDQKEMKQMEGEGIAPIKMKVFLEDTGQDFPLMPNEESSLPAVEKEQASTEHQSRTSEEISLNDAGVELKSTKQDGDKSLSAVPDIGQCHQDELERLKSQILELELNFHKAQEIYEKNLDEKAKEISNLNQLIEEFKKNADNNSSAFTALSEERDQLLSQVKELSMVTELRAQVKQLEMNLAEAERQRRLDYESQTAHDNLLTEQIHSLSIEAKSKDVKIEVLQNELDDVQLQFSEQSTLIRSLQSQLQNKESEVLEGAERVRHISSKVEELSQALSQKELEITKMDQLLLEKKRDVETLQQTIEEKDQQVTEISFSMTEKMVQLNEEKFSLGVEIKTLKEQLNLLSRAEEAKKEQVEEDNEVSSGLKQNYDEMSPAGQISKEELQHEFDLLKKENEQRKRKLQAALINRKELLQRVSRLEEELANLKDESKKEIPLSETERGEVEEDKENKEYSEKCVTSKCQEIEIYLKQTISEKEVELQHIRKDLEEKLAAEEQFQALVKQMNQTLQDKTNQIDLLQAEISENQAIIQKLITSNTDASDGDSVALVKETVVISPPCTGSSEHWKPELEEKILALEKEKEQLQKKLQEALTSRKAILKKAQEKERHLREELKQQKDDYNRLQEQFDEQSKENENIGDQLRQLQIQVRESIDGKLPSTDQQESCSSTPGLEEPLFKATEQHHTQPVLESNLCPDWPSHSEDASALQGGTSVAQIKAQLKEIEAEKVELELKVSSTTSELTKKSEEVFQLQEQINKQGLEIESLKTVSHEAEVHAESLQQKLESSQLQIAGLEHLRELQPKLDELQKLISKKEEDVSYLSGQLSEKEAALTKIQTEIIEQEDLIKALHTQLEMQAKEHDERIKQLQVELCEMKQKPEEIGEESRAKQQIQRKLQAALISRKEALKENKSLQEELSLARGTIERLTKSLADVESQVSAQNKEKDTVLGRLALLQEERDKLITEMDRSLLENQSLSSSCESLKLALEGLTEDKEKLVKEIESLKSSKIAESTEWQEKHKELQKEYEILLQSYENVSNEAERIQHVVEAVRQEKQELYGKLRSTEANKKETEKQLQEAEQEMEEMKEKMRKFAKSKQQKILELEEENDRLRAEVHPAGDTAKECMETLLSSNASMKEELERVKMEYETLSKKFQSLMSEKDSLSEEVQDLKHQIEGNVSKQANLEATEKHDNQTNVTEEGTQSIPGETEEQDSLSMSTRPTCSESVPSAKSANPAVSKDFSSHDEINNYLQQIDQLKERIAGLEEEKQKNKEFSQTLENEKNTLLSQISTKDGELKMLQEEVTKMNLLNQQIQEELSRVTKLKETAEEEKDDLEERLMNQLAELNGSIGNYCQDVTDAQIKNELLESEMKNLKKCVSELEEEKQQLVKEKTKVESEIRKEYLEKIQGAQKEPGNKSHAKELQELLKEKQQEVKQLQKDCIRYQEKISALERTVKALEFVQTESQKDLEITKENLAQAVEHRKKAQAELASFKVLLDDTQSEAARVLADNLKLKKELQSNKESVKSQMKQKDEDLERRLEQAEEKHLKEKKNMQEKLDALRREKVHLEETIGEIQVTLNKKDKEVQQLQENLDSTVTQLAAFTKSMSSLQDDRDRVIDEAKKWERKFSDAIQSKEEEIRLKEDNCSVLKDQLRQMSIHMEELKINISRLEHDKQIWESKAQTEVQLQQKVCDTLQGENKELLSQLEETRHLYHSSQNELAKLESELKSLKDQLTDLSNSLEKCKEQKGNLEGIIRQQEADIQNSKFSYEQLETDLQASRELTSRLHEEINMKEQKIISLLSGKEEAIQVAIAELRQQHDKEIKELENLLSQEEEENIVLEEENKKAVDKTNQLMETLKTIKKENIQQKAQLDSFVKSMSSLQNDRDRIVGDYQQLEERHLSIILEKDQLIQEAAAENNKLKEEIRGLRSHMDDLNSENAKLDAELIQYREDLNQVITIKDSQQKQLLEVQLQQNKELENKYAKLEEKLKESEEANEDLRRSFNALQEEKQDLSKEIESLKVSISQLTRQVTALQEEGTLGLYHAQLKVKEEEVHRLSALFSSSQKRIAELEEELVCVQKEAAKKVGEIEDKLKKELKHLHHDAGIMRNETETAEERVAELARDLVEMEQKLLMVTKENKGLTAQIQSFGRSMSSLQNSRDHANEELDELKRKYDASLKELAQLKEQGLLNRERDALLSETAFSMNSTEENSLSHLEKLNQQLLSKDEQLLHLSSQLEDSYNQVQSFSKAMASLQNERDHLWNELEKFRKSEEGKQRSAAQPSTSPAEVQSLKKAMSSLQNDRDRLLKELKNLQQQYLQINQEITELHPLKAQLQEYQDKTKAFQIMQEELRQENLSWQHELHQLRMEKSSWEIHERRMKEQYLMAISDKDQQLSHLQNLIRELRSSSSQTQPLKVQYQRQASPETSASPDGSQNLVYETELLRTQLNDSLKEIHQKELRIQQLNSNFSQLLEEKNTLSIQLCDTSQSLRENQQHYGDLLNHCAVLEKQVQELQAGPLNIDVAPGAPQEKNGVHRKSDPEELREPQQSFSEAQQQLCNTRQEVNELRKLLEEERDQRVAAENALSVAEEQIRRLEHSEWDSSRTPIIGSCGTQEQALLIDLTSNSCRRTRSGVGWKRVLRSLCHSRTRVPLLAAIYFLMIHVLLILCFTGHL

Residue numbers refer to the chain shown, from its start. Read-outs that look alike come from different tables or passages of the source. No constants are given. Whether binding was seen depends on the method and setting. In cells and extracts the contact can be indirect. These calls come from enrichment with a bait or labelling near it, and not all partners need be listed. Where a sequence is shown, tags or fusion partners need not be part of it.

Common to all, as to assay: proximity labelling; BioID: SCYL1-BirA variants induced in SILAC-labeled SCYL1 KO MCF-7 cells, 50 µM biotin for 18 h, lysis in RIPA buffer, streptavidin-agarose enrichment at room temperature for 2 h, quantitative LC-MS/MS against BirA-only cells
The target of experiment [1] is T1, SCYL1(S754A)-BirA-myc (human) (UniProt Q96KG9).
T1 sequence: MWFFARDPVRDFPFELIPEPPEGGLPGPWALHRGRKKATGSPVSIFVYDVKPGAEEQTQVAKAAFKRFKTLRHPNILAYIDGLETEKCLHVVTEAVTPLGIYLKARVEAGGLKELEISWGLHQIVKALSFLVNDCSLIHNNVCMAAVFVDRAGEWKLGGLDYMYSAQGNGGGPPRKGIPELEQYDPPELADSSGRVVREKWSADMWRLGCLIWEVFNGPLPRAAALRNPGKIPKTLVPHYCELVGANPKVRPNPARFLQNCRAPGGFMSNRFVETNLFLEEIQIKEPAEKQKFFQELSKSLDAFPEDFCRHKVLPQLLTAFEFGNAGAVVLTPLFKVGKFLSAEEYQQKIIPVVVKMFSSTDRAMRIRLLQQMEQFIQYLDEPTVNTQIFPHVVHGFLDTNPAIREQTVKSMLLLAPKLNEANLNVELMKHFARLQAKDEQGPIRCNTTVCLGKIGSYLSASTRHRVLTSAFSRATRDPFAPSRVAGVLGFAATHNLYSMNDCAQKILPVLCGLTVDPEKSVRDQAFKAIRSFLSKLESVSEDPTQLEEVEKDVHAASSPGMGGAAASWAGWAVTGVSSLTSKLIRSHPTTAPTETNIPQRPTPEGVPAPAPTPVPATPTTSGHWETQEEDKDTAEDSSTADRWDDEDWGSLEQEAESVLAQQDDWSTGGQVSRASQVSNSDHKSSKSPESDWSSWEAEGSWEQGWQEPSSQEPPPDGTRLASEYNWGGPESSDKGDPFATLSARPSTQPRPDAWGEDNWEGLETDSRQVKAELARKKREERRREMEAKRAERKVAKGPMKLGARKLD

Experiment [2] addresses T2, SCYL1(S754E)-BirA-myc (human) (UniProt Q96KG9).
T2 sequence: T1 sequence with A754E

Experiment [3] addresses T1, SCYL1(S754A)-BirA-myc (human). This is another data set of the same source.
For experiment [4], the target named is T2, SCYL1(S754E)-BirA-myc (human). This is another data set of the same source.

As for AP2A1 (from UniProt O95782 1-977), the binding entry in experiment [1] and in experiment [2] was “binds” each time.

Take AP2A2 (from UniProt O94973 1-939): the binding entry in experiment [1] and in experiment [2] was “binds” each time.

As to CLPP (from UniProt Q16740 57-277), the binding entry in experiment [1] and in experiment [2] was “binds” in each case.

Consider ERC1 (from UniProt Q8IUD2 1-1116), for which the binding entry in experiment [1] and in experiment [2] was “binds” each time.

As to GOLGA4 (from UniProt Q13439 1-2230), the binding entry in experiment [1] and in experiment [2] was “binds” throughout.

As for GOLGB1 (from UniProt Q14789 1-3259), the binding result in experiment [1] and in experiment [2] was “binds” each time.

On to MRPS11 (human (endogenous in MCF-7)), for which the binding entry in experiment [1] and in experiment [2] was “binds” throughout.

As for SYNE1 (from UniProt Q8NF91 1-8797), the binding entry in experiment [1] and in experiment [2] was “binds” throughout.

B1: MLEC (protein, UniProt Q14165 29-292)
chain: PGLGVAGVAGAAGAGLPESVIWAVNAGGEAHVDVHGIHFRKDPLEGRVGRASDYGMKLPILRSNPEDQILYQTERYNEETFGYEVPIKEEGDYVLVLKFAEVYFAQSQQKVFDVRLNGHVVVKDLDIFDRVGHSTAHDEIIPMSIRKGKLSVQGEVSTFTGKLYIEFVKGYYDNPKVCALYIMAGTVDDVPKLQPHPGLEKKEEEEEEEEYDEGSNLKKQTNKNRVQSGPRTPNPYASDNSSLMFPILVAFGVFIPTLFCLCRL
Consider B1, for which the binding entry in experiment [3] and in experiment [4] was “binds” each time.

B2: GORAB (protein, UniProt Q5T7V8 1-369)
chain: MAQGWAGFSEEELRRLKQTKDPFEPQRRLPAKKSRQQLQREKALVEQSQKLGLQDGSTSLLPEQLLSAPKQRVNVQKPPFSSPTLPSHFTLTSPVGDGQPQGIESQPKELGLENSHDGHNNVEILPPKPDCKLEKKKVELQEKSRWEVLQQEQRLMEEKNKRKKALLAKAIAERSKRTQAETMKLKRIQKELQALDDMVSADIGILRNRIDQASLDYSYARKRFDRAEAEYIAAKLDIQRKTEIKEQLTEHLCTIIQQNELRKAKKLEELMQQLDVEADEETLELEVEVERLLHEQEVESRRPVVRLERPFQPAEESVTLEFAKENRKCQEQAVSPKVDDQCGNSSSIPFLSPNCPNQEGNDISAALAT
Take B2: the binding entry in experiment [3] and in experiment [4] was “binds” each time.

B3: VIPAS39 (protein, UniProt Q9H9C1 1-493)
chain: MNRTKGDEEEYWNSSKFKAFTFDDEDDELSQLKESKRAVNSLRDFVDDDDDDDLERVSWSGEPVGSISWSIRETAGNSGSTHEGREQLKSRNSFSSYAQLPKPTSTYSLSSFFRGRTRPGSFQSLSDALSDTPAKSYAPELGRPKGEYRDYSNDWSPSDTVRRLRKGKVCSLERFRSLQDKLQLLEEAVSMHDGNVITAVLIFLKRTLSKEILFRELEVRQVALRHLIHFLKEIGDQKLLLDLFRFLDRTEELALSHYREHLNIQDPDKRKEFLKTCVGLPFSAEDSAHIQDHYTLLERQIIIEANDRHLESAGQTEIFRKHPRKASILNMPLVTTLFYSCFYHYTEAEGTFSSPVNLKKTFKIPDKQYVLTALAARAKLRAWNDVDALFTTKNWLGYTKKRAPIGFHRVVEILHKNNAPVQILQEYVNLVEDVDTKLNLATKFKCHDVVIDTYRDLKDRQQLLAYRSKVDKGSAEEEKIDALLSSSQIRWKN
For the molecule B3, the binding result in experiment [3] and in experiment [4] was “binds” each time.

B4: SYAP1 (protein, UniProt Q96A49 1-352)
chain: MFRGLSSWLGLQQPVAGGGQPNGDAPPEQPSETVAESAEEELQQAGDQELLHQAKDFGNYLFNFASAATKKITESVAETAQTIKKSVEEGKIDGIIDKTIIGDFQKEQKKFVEEQHTKKSEAAVPPWVDTNDEETIQQQILALSADKRNFLRDPPAGVQFNFDFDQMYPVALVMLQEDELLSKMRFALVPKLVKEEVFWRNYFYRVSLIKQSAQLTALAAQQQAAGKEEKSNGREQDLPLAEAVRPKTPPVVIKSQLKTQEDEEEISTSPGVSEFVSDAFDACNLNQEDLRKEMEQLVLDKKQEETAVLEEDSADWEKELQQELQEYEVVTESEKRDENWDKEIEKMLQEEN
On to B4, for which the binding result in experiment [3] and in experiment [4] was “binds” throughout.
